The list shows a part of the results.
Columns and labels:
Assay in all cases: log2 fold change, soluble protein after heating vs DMSO (PISA); higher = thermal stabilisation; K562 lysate, 10 uM; active = over 0.2 and 3.5 SD of the protein, either way, in both replicates (recomputed)
[1] = compound: NCC(=O)Nc1ccc(-n2nc(C(F)(F)F)cc2-c2ccc3c(ccc4ccccc43)c2)cc1
Outline: (§1)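 Dounce homogenisation of K562 pellets in PBS pH 7.4 with 1 mM MgCl2 produced a crude extract, used at 1 mg/mL protein. Exposure to 10 μM compound lasted 30 min, and aliquots were then heated for 3 min across 48°C-58°C, pooled and brought to 0.5% NP-40 at 4°C. The supernatant after 21,000xg for 90 min was quantified by TMTpro 16plex LC-MS/MS with channel sums equalised. Duplicate values are given as log-two fold change in thermal stability relative to solvent controls.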

Sequences of proteins named here, by UniProt entry; tags and fusion partners are left off. A change or cut given only in a name is not applied to a line headed by its entry.
UniProt Q5BKX6: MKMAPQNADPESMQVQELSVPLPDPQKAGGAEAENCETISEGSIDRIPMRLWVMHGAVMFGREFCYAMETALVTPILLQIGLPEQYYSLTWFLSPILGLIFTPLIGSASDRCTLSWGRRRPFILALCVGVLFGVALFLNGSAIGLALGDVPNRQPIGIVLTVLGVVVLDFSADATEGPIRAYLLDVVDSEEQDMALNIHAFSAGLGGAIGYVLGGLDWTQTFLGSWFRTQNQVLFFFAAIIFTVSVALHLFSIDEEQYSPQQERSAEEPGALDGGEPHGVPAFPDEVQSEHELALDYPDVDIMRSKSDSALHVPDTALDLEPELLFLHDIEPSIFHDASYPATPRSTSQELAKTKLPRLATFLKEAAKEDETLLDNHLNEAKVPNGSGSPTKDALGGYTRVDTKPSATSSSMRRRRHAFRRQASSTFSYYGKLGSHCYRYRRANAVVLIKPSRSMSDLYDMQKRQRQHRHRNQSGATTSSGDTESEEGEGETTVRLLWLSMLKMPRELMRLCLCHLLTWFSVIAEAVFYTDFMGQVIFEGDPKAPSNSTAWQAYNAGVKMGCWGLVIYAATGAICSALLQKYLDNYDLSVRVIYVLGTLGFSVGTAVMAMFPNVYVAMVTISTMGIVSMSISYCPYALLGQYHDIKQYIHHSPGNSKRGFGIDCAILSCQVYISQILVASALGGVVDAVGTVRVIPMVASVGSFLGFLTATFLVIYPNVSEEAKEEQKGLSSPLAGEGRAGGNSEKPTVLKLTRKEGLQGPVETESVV
UniProt Q6XR72: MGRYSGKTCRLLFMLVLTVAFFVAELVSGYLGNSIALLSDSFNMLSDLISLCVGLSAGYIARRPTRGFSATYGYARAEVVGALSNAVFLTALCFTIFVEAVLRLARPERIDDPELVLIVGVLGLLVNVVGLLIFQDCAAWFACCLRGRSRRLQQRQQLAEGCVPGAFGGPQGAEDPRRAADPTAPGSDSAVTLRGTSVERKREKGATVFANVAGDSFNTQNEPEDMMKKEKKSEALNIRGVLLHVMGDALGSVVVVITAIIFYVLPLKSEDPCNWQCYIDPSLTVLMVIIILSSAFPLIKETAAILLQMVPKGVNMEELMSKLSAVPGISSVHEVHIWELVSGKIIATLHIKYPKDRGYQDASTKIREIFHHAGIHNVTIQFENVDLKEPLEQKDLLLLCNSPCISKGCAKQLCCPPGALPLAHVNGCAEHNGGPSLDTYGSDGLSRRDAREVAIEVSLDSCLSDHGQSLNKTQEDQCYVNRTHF
UniProt O14975, whole entry, looked up: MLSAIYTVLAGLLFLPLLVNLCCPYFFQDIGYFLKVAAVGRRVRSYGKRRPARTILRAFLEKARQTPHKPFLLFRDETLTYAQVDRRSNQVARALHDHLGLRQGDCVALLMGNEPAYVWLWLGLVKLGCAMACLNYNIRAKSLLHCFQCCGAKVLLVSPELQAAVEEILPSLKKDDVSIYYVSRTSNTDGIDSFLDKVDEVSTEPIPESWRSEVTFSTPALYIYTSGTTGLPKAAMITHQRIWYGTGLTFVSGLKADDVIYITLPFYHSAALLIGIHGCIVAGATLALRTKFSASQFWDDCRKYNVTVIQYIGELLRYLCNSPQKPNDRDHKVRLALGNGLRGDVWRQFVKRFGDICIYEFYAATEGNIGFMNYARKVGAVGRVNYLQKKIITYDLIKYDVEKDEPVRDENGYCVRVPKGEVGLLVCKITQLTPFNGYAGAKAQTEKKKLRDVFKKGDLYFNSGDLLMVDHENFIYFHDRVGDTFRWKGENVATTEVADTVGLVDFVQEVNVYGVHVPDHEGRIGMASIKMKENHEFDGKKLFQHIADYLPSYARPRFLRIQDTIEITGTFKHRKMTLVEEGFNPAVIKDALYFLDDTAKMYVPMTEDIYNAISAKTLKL
UniProt P05141: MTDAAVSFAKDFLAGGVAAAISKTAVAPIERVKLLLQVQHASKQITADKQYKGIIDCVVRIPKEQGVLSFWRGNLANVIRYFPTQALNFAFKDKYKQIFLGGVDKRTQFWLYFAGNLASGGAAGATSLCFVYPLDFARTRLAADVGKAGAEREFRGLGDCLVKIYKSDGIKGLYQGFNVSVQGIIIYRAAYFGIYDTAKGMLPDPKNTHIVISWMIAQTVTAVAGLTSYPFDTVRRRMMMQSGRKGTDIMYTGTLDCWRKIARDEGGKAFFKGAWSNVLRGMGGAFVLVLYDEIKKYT
UniProt O75746: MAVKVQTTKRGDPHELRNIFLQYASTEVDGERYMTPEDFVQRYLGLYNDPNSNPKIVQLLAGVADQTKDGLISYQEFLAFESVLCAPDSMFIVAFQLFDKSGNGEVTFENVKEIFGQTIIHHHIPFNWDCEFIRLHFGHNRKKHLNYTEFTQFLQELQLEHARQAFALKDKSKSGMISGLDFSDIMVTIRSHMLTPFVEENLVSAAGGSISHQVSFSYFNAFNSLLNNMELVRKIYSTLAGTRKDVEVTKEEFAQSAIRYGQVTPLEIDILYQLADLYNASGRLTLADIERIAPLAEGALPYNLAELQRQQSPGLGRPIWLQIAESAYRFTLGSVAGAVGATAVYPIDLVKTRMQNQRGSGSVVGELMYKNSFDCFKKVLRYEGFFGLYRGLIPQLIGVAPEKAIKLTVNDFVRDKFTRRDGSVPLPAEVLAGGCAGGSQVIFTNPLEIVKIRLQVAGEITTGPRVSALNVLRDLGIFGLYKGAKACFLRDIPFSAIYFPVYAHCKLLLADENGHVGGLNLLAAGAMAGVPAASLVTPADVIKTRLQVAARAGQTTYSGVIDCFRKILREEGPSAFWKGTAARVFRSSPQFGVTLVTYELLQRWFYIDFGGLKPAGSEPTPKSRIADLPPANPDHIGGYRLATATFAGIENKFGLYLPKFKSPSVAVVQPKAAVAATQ
UniProt Q6P1M0: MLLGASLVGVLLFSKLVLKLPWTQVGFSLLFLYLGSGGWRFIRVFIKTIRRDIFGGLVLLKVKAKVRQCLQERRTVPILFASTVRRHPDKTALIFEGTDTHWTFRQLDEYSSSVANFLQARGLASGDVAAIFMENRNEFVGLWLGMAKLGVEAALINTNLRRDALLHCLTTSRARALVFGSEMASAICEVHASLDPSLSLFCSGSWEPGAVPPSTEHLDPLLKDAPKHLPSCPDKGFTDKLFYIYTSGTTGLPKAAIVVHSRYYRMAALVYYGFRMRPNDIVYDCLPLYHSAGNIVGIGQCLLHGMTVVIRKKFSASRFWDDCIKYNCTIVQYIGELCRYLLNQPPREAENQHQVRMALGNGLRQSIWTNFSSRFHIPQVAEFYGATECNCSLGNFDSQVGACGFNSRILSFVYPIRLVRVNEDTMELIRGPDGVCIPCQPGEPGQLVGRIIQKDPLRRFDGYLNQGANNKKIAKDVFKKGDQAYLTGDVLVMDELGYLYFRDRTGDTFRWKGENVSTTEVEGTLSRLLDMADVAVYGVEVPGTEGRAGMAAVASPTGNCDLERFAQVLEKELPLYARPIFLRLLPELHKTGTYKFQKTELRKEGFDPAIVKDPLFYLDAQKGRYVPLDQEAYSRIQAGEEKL
UniProt Q8TB61: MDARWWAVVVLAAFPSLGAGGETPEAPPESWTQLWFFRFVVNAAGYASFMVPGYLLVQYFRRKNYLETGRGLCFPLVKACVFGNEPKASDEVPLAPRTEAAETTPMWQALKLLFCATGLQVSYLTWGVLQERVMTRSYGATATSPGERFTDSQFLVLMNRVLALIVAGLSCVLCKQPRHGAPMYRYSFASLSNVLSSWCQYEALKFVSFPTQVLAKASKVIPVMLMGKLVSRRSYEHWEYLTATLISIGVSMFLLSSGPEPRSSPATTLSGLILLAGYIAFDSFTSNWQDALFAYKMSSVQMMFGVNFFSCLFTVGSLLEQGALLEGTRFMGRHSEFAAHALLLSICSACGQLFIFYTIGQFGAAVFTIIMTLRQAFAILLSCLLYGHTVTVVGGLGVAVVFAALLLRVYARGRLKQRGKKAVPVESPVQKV
UniProt O14745: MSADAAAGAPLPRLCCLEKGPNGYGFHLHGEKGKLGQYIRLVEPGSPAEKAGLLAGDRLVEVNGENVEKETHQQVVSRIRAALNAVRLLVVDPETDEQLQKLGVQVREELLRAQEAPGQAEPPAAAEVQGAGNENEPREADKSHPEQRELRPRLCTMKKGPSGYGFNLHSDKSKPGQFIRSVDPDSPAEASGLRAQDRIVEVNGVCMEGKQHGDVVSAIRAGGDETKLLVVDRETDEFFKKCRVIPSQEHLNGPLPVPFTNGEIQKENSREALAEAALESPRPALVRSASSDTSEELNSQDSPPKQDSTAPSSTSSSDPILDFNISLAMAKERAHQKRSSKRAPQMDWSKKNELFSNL
UniProt Q8IYB5: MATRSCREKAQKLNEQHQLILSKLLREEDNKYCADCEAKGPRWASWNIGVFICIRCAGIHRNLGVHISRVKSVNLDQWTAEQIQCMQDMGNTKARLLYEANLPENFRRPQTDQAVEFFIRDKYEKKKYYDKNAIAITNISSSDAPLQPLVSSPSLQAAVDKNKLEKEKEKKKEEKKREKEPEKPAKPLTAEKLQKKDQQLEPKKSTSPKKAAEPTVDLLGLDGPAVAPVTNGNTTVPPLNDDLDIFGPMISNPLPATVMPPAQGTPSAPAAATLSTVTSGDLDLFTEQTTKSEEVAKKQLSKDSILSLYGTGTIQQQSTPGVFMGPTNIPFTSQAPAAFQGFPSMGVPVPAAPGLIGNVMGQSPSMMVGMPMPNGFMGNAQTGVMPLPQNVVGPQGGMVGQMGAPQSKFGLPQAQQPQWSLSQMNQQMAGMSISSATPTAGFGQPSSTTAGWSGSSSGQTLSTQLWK
UniProt Q15043: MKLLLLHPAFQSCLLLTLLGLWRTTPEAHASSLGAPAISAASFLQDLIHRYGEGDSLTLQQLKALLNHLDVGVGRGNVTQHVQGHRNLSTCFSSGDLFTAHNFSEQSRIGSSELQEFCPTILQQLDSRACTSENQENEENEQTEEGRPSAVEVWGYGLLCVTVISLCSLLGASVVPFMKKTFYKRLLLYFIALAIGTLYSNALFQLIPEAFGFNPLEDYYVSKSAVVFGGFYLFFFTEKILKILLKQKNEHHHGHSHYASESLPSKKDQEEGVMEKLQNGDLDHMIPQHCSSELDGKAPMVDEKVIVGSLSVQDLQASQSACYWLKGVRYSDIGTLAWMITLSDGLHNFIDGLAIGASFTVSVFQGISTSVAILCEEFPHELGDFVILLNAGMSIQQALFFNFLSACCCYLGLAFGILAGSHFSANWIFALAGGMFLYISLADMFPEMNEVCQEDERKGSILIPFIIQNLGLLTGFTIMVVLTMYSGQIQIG
UniProt P30825: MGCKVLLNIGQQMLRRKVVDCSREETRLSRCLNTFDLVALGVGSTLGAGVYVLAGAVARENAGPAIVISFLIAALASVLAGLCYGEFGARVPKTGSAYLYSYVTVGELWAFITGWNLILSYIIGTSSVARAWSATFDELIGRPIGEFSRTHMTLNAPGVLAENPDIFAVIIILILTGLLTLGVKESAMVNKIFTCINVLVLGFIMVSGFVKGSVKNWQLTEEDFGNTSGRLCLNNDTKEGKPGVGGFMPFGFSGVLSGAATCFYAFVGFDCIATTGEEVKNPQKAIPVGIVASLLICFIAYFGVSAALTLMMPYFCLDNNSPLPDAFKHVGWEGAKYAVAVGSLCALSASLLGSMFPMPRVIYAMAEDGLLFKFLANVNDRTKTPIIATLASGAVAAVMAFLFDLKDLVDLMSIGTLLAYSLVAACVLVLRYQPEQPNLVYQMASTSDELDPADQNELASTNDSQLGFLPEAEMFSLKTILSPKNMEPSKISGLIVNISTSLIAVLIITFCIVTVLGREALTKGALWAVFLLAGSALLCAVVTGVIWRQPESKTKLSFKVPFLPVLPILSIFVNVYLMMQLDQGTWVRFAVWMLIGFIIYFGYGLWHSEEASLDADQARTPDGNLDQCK
UniProt Q96A29: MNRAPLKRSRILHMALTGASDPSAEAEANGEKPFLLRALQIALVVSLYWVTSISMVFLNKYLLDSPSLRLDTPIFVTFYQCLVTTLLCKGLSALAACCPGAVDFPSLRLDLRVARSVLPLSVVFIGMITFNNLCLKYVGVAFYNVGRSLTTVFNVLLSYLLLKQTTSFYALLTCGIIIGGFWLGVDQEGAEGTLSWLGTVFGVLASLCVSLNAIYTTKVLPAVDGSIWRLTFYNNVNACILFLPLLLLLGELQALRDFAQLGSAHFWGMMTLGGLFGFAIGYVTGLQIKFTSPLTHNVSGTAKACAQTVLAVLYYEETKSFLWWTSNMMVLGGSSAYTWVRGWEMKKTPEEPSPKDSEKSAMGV
UniProt Q6P1K1: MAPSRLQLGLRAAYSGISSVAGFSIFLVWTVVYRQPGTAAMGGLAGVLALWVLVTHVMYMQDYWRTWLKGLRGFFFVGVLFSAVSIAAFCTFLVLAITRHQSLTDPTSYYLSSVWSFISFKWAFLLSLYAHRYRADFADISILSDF

vorinostat = compound: O=C(CCCCCCC(=O)Nc1ccccc1)NO [vorinostat]
Outline: as §1

silmitasertib = compound: O=C(O)c1ccc2c(c1)nc(Nc1cccc(Cl)c1)c1ccncc12 [silmitasertib]
Outline: as §1

[2] = compound: O=C1NC(=O)C(c2cnc3ccccn23)=C1c1cn2c3c(cc(F)cc13)CN(C(=O)N1CCCCC1)CC2
Outline: as §1

entospletinib = compound: c1cn2cc(-c3ccc4cn[nH]c4c3)nc(Nc3ccc(N4CCOCC4)cc3)c2n1 [entospletinib]
Outline: as §1

| Target | log2 fold change [1] | log2 fold change (vorinostat) | log2 fold change (silmitasertib) | log2 fold change [2] | log2 fold change (entospletinib) |
| --- | --- | --- | --- | --- | --- |
| SLC45A4 isoform 3 (UniProt Q5BKX6) | inactive: -0.019 | inactive: 0.117 | inactive: 0.08 | inactive: -0.041 | inactive: 0.04 |
| SMAD5 (UniProt Q99717) | inactive: -0.009 | inactive: 0.002 | inactive: -0.104 | inactive: -0.09 | inactive: -0.004 |
| SLC30A10 (UniProt Q6XR72) | inactive: -0.062 | inactive: 0.024 | inactive: -0.033 | inactive: 0.031 | inactive: -0.053 |
| SLC27A2 (UniProt O14975) | inactive: -0.108 | inactive: -0.237 | inactive: 0.08 | inactive: 0.367 | inactive: -0.023 |
| SLC25A5 (UniProt P05141) | inactive: 0.006 | inactive: -0.07 | inactive: -0.05 | inactive: 0.017 | inactive: 0.036 |
| SLC43A1 (UniProt O75387) | inactive: 0.029 | inactive: 0.124 | inactive: -0.028 | inactive: 0.04 | inactive: -0.01 |
| SLC25A4 (UniProt P12235) | inactive: -0.023 | inactive: -0.053 | inactive: 0.009 | inactive: -0.074 | inactive: 0.037 |
| SLC5A6 (UniProt Q9Y289) | inactive: 0.033 | inactive: 0.135 | inactive: -0.106 | inactive: 0.02 | inactive: 0.029 |
| SLC9A3R2 (UniProt Q15599) | inactive: 0.072 | inactive: 0.1 | inactive: -0.046 | inactive: 0 | inactive: -0.008 |
| SLC25A12 (UniProt O75746) | inactive: 0.007 | inactive: 0.036 | inactive: -0.008 | inactive: -0.008 | inactive: 0.01 |
| SLC44A2 (UniProt Q8IWA5) | inactive: -0.071 | inactive: 0.033 | inactive: 0.038 | inactive: -0.045 | inactive: -0.005 |
| SLC27A4 (UniProt Q6P1M0) | inactive: -0.127 | active: -0.257 | inactive: 0.016 | inactive: -0.002 | inactive: 0.07 |
| SLC25A15 (UniProt Q9Y619) | inactive: 0.007 | inactive: 0.044 | inactive: 0.018 | inactive: -0.058 | inactive: 0.009 |
| SLC25A40 (UniProt Q8TBP6) | inactive: 0.005 | inactive: -0.058 | inactive: -0.024 | inactive: -0.014 | inactive: -0.036 |
| SLIRP (UniProt Q9GZT3) | inactive: 0.003 | inactive: 0.004 | inactive: -0.002 | inactive: 0.012 | inactive: -0.011 |
| SLC25A31 (UniProt Q9H0C2) | inactive: -0.017 | inactive: 0.007 | inactive: 0.001 | inactive: -0.039 | inactive: 0.037 |
| SLC35B2 (UniProt Q8TB61) | inactive: 0.032 | inactive: 0.063 | inactive: -0.062 | inactive: 0.001 | inactive: -0.026 |
| SLC38A7 (UniProt Q9NVC3) | inactive: 0 | inactive: 0.117 | inactive: 0.057 | inactive: -0.007 | inactive: 0.02 |
| SLC9A3R1 (UniProt O14745) | inactive: 0.024 | inactive: 0.108 | inactive: -0.026 | inactive: -0.001 | inactive: 0.008 |
| SLC25A42 (UniProt Q86VD7) | inactive: -0.059 | inactive: 0.016 | inactive: -0.034 | inactive: -0.03 | inactive: -0.023 |
| SLC30A6 isoform 2 (UniProt Q6NXT4) | inactive: 0.014 | inactive: 0.11 | inactive: 0.01 | inactive: 0.001 | inactive: 0.064 |
| SMARCA2 (UniProt P51531) | inactive: 0.022 | inactive: -0.045 | inactive: 0.044 | inactive: 0.025 | inactive: -0.03 |
| SLC35F6 (UniProt Q8N357) | inactive: -0.075 | inactive: -0.006 | inactive: -0.01 | inactive: -0.018 | inactive: -0.012 |
| SLC25A33 (UniProt Q9BSK2) | inactive: 0.009 | inactive: -0.022 | inactive: -0.033 | inactive: 0.033 | inactive: 0.003 |
| SLC35A2 isoform 4 (UniProt P78381) | inactive: -0.011 | inactive: 0.066 | inactive: -0.037 | inactive: 0.023 | inactive: 0.011 |

Taken from the results shown for reference:

| Target | log2 fold change [1] | log2 fold change (vorinostat) | log2 fold change (silmitasertib) | log2 fold change [2] | log2 fold change (entospletinib) |
| --- | --- | --- | --- | --- | --- |
| SLC9A3R2 (UniProt Q15599) | inactive: 0.072 | inactive: 0.1 | inactive: -0.046 | inactive: 0 | inactive: -0.008 |
| SLC25A12 (UniProt O75746) | inactive: 0.007 | inactive: 0.036 | inactive: -0.008 | inactive: -0.008 | inactive: 0.01 |
| SLC44A2 (UniProt Q8IWA5) | inactive: -0.071 | inactive: 0.033 | inactive: 0.038 | inactive: -0.045 | inactive: -0.005 |
| SLC27A4 (UniProt Q6P1M0) | inactive: -0.127 | active: -0.257 | inactive: 0.016 | inactive: -0.002 | inactive: 0.07 |
| SLC25A15 (UniProt Q9Y619) | inactive: 0.007 | inactive: 0.044 | inactive: 0.018 | inactive: -0.058 | inactive: 0.009 |
| SLC25A40 (UniProt Q8TBP6) | inactive: 0.005 | inactive: -0.058 | inactive: -0.024 | inactive: -0.014 | inactive: -0.036 |
| SLIRP (UniProt Q9GZT3) | inactive: 0.003 | inactive: 0.004 | inactive: -0.002 | inactive: 0.012 | inactive: -0.011 |
| SLC25A31 (UniProt Q9H0C2) | inactive: -0.017 | inactive: 0.007 | inactive: 0.001 | inactive: -0.039 | inactive: 0.037 |
| SLC35B2 (UniProt Q8TB61) | inactive: 0.032 | inactive: 0.063 | inactive: -0.062 | inactive: 0.001 | inactive: -0.026 |
| SLC38A7 (UniProt Q9NVC3) | inactive: 0 | inactive: 0.117 | inactive: 0.057 | inactive: -0.007 | inactive: 0.02 |

(next part)

| Target | log2 fold change [1] | log2 fold change (vorinostat) | log2 fold change (silmitasertib) | log2 fold change [2] | log2 fold change (entospletinib) |
| --- | --- | --- | --- | --- | --- |
| SLC25A44 (UniProt Q96H78) | inactive: 0.13 | inactive: 0.025 | inactive: -0.02 | inactive: -0.056 | inactive: -0.026 |
| SLC25A10 isoform 2 (UniProt Q9UBX3) | inactive: -0.058 | inactive: -0.069 | inactive: -0.001 | inactive: -0.061 | inactive: -0.023 |
| SLC25A26 (UniProt Q70HW3) | inactive: 0.037 | inactive: 0.019 | inactive: -0.032 | inactive: -0.071 | inactive: -0.04 |
| SLC35B4 (UniProt Q969S0) | inactive: -0.008 | inactive: 0.07 | inactive: -0.07 | inactive: -0.047 | inactive: 0.033 |
| SLC9A6 isoform 2 (UniProt Q92581) | inactive: 0.073 | inactive: 0.139 | inactive: -0.021 | inactive: -0.02 | inactive: -0.011 |
| SLC25A14 isoform 3 (UniProt O95258) | inactive: 0.029 | inactive: 0.073 | inactive: -0.005 | inactive: -0.014 | inactive: 0.005 |
| SLC6A9 isoform 2 (UniProt P48067) | inactive: -0.045 | inactive: 0.008 | inactive: -0.027 | inactive: 0.011 | inactive: -0.002 |
| SLC25A37 (UniProt Q9NYZ2) | inactive: 0.091 | inactive: 0.099 | inactive: -0.125 | inactive: 0.003 | inactive: 0.019 |
| SMAP1 isoform 2 (UniProt Q8IYB5) | inactive: -0.009 | inactive: 0.089 | inactive: -0.051 | inactive: -0.057 | inactive: -0.01 |
| SLC2A4 (UniProt P14672) | inactive: -0.03 | inactive: 0.131 | inactive: -0.144 | inactive: -0.042 | inactive: -0.003 |
| SLC35E1 (UniProt Q96K37) | inactive: 0 | inactive: -0.029 | inactive: 0.035 | inactive: -0.021 | inactive: -0.101 |
| SLC52A2 (UniProt Q9HAB3) | inactive: 0.104 | inactive: 0.053 | inactive: -0.021 | inactive: 0.004 | inactive: 0.004 |
| SLC39A14 (UniProt Q15043) | inactive: 0.068 | inactive: 0.178 | inactive: -0.006 | inactive: -0.034 | inactive: 0.002 |
| SLC7A1 (UniProt P30825) | inactive: -0.028 | inactive: -0.046 | inactive: 0.02 | inactive: -0.102 | inactive: 0.066 |
| SLC35C1 (UniProt Q96A29) | inactive: -0.108 | inactive: -0.305 | inactive: 0.042 | inactive: 0.036 | inactive: -0.063 |
| SLC25A36 (UniProt Q96CQ1) | inactive: -0.172 | inactive: -0.071 | inactive: 0.001 | inactive: 0.033 | inactive: 0.013 |
| SMAP2 (UniProt Q8WU79) | inactive: 0 | inactive: -0.032 | inactive: 0.017 | inactive: -0.04 | inactive: -0.028 |
| SLC25A13 isoform 2 (UniProt Q9UJS0) | inactive: 0.01 | inactive: 0.053 | inactive: -0.033 | inactive: -0.022 | inactive: 0.023 |
| SLC35C2 isoform 3 (UniProt Q9NQQ7) |  | inactive: 0.113 | inactive: 0.036 | inactive: -0.135 | inactive: 0.054 |
| SLC48A1 (UniProt Q6P1K1) | inactive: -0.026 | inactive: 0.102 | inactive: -0.107 |  | inactive: 0.043 |
| SLC41A3 isoform 9 (UniProt Q96GZ6) | inactive: -0.021 |  |  |  | inactive: -0.1 |
| SLC50A1 (UniProt Q9BRV3) |  | inactive: 0.158 | inactive: -0.139 | inactive: -0.042 |  |
| SLC9B2 (UniProt Q86UD5) |  |  |  | inactive: -0.161 |  |
| SLC25A28 (UniProt Q96A46) | inactive: 0.11 |  |  | inactive: -0.098 | inactive: -0.112 |

From the supplement of paper PMC10849652
